# From patent US20240382626A1, “IRRADIATION AMENABLE LIPOSOMAL DYE AGGREGATES AND METHODS OF SYNTHESIS AND USE THEREOF” (Board of Regents, The University of Texas System, priority 2023, published 2024)
# Tested on: mouse kidney and surrounding tissue
# Test: In vivo photoacoustic sO2 measurement after contrast agent injection
# Parameters: species or system mice
# Text: Particle circulation was monitored by imaging the mouse kidney and surrounding tissue. The kidney is a high blood flow organ that has the distinct advantage of being easily and rapidly identifiable using ultrasound imaging. Simple setup and identification decreases the amount of time animals are under anesthesia and limits any potential artificial lowering of SO2 due to prolonged exposure to anesthetic agents. Once prepped, mice placed in the imaging system were imaged with power-doppler to confirm blood flow and baseline values for SO2 and contrast agent signals (FIG. 13). Following a bolus injection of a 5 mg/kg dose of contrast agent via the tail vein, the same region was monitored at varying time points. After processing with FUJIFILM VisualSonics' proprietary spectral unmixing software the images were analyzed using in-house MATLAB software. Power-doppler images guide the placement of ROIs around areas of high blood flow allowing isolation and calculation of SO2 and contrast agent signal over the course of imaging.
# To assess their performance in vivo, particles were injected intravenously via the tail vein. Particle circulation was monitored by imaging the mouse kidney and surrounding tissue. […] Following a bolus injection of contrast agent via the tail vein, the same region was monitored at multiple time points. […]
structure (smiles),measurement,setting,value
"CC1(C)C(/C=C/C=C/C=C/C=C2\N(CCCCS(=O)(=O)O)c3ccc4ccccc4c3C2(C)C)=[N+](CCCCS(=O)(=O)[O-])c2ccc3ccccc3c21 [IcG, Indocyanine Green]",change in measured sO2 during imaging,"5 mg/kg bolus, tail vein",15 to 20%
same,effect on measured sO2 (in words),"5 mg/kg dose, varying time points after injection",does cause a significant drop
